This is one part of the list. Residues, ends and D or L forms follow the SMILES beside them. *: point of attachment. Cbz = O=C(OCc1ccccc1)*
Key:
Experiment in all cases: log2 fold change, soluble protein after heating vs DMSO (PISA); higher = thermal stabilisation; K562 cells, 10 uM, 30 min; active = over 0.2 and 3.5 SD of the protein, either way, in both replicates (recomputed)
erlotinib = compound: C#Cc1cccc(Nc2ncnc3cc(OCCOC)c(OCCOC)cc23)c1 [erlotinib]
How it was run: (§1)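 Thermal stability values are relative to control samples and come from duplicates. They are expressed as log2 fold changes. For measurement, K562 cells (2×10^6 cells/mL) received 10 μM compound for 30 min, and aliquots were heated for 3 min over 48°C-58°C, pooled, and extracted at 4°C in PBS with 0.5% NP-40. Soluble protein, the supernatant after 21,000xg for 90 min, was quantified by TMTpro 16plex LC-MS/MS with equalised channel sums.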

Protein sequences, listed by entry. Tags and fused reporters are not part of them. Lines headed by an entry give the natural chain unless they say otherwise; changes in a name come on top.
UniProt Q9BZI7: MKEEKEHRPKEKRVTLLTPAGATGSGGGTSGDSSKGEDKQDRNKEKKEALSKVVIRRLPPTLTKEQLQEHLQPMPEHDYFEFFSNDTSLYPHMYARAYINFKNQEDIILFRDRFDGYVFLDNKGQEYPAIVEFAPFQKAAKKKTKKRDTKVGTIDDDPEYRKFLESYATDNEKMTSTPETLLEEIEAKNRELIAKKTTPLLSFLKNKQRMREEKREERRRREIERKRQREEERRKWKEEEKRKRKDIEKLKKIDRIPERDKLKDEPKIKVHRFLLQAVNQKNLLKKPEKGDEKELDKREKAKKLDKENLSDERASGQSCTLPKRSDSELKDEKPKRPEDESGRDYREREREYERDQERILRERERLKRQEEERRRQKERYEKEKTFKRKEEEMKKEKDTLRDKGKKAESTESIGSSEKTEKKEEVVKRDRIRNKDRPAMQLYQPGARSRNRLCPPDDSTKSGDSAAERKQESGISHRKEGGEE
UniProt Q9Y5K5, whole entry, looked up: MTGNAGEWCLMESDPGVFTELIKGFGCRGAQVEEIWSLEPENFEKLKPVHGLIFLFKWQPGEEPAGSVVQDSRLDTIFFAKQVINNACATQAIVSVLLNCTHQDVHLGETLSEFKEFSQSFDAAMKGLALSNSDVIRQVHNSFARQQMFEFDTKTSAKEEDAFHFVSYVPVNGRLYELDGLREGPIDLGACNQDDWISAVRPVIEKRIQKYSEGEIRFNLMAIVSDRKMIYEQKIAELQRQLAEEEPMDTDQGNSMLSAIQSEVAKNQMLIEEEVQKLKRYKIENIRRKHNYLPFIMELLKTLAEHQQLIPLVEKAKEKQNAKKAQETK
UniProt Q9H1C4: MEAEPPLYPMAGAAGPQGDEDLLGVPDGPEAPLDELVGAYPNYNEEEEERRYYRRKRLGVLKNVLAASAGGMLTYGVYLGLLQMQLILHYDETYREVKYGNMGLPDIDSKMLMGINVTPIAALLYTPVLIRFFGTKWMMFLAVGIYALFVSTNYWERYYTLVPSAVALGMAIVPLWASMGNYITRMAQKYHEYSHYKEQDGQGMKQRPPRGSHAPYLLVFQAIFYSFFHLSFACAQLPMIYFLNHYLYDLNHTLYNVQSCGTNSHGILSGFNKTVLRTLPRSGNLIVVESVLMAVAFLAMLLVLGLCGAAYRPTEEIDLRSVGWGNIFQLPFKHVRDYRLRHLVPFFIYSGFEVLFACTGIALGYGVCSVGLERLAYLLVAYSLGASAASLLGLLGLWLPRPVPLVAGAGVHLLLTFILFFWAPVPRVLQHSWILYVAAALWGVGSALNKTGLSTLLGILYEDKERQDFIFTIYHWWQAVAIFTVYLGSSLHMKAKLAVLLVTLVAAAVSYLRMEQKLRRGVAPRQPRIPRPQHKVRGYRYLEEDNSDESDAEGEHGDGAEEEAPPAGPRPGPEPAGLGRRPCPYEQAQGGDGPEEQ
UniProt Q9BZM6: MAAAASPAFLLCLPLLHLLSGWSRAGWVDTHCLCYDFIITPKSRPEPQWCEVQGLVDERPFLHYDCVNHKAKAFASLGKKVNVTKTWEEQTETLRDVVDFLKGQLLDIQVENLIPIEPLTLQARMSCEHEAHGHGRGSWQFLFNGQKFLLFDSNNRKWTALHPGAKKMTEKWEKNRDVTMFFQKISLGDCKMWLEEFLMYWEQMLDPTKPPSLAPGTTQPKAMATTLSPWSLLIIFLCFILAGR
UniProt Q9UBK9, whole entry, looked up: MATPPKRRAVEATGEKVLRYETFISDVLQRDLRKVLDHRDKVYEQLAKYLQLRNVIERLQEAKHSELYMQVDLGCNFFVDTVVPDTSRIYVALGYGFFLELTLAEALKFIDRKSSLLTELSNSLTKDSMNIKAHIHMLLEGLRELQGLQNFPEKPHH
UniProt Q9NYU2: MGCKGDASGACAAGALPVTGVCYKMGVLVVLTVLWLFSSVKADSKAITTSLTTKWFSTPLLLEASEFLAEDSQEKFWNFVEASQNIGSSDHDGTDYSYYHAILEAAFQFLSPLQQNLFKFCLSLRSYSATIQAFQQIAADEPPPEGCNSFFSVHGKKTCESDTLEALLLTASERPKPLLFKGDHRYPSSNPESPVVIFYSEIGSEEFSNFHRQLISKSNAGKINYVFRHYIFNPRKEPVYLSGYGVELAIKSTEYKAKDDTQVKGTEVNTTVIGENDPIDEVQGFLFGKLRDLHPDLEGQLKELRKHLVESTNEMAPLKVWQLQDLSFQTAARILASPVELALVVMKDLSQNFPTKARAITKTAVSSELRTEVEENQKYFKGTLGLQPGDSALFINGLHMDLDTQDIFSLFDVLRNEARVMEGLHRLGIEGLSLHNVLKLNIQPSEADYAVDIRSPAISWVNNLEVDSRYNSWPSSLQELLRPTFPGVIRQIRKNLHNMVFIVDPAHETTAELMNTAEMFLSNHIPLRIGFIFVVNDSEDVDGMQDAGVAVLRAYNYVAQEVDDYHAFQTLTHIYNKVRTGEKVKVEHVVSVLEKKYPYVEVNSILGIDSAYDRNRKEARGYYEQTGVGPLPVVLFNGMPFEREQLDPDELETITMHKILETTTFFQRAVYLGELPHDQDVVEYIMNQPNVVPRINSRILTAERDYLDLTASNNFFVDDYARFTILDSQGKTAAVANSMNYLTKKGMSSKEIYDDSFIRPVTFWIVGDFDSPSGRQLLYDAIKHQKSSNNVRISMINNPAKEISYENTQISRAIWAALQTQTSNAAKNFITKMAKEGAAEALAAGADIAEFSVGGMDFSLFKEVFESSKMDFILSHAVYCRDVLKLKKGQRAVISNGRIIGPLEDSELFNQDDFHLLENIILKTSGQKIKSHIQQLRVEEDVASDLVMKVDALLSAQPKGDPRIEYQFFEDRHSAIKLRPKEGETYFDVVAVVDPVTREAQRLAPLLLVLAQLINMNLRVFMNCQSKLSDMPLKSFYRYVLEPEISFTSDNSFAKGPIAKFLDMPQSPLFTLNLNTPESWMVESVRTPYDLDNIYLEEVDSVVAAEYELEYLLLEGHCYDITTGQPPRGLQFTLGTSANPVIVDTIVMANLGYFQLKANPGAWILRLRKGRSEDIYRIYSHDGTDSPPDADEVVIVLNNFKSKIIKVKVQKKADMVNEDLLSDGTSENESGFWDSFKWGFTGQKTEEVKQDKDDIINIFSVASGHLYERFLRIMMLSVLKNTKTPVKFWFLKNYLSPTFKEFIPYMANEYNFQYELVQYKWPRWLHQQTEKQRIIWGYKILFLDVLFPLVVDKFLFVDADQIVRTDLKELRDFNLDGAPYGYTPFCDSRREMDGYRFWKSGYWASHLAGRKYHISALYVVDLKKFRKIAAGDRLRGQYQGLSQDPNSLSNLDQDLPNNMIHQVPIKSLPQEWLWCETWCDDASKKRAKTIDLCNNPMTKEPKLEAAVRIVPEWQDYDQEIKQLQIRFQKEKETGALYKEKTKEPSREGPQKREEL
UniProt Q96BW1: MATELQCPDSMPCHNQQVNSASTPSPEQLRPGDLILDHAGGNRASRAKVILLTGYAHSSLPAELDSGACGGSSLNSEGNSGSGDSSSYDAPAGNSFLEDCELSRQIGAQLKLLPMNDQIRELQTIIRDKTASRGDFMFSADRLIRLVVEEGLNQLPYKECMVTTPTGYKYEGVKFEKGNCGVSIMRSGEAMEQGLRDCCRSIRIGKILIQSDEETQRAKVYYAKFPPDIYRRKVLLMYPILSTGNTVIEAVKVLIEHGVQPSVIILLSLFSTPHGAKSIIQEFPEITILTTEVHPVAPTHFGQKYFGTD
UniProt O95155, whole entry, looked up: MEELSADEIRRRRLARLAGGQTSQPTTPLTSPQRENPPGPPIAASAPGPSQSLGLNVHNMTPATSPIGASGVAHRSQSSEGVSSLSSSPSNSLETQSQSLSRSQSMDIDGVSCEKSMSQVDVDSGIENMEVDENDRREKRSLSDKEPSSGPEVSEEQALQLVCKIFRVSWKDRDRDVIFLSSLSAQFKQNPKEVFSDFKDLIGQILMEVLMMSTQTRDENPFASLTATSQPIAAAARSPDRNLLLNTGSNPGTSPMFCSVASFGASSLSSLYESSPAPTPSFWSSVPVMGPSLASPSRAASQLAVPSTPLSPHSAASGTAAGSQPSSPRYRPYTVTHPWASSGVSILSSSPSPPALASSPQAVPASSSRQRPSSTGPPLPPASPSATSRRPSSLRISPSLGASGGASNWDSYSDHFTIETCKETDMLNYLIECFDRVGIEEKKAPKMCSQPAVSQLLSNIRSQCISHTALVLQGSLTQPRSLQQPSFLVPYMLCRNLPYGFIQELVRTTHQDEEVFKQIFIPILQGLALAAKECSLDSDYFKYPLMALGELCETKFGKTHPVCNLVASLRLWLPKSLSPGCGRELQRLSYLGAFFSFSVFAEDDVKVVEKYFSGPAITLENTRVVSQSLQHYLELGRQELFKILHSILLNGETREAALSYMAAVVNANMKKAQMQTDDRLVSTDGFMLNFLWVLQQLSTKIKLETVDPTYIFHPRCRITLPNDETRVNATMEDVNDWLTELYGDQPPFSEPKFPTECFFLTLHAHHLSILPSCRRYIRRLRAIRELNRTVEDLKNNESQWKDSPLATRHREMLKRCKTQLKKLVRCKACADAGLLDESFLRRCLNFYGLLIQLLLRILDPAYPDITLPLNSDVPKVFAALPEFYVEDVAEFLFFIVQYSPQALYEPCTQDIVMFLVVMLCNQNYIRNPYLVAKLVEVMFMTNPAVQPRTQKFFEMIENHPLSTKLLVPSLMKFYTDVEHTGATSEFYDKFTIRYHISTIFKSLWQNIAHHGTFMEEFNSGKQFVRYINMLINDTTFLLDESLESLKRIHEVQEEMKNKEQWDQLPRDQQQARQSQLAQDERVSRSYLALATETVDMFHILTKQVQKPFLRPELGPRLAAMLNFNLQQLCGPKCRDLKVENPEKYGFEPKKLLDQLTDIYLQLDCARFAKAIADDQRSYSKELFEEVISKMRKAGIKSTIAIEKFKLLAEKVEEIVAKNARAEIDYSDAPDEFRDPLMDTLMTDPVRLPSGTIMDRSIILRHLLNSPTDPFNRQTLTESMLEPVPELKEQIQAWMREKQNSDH

[1] = compound: C/C(=N\NC(=O)C1=CC(=CC=C1)S(=O)(=O)N2CCOCC2)/C3=C(C=CC(=C3)Cl)O
How it was run: as §1

[2] = compound: C1=CC(=C(C=C1Cl)C2=NC3=NC=CN=C3C(=N2)NC4=CC=NC=C4)F
How it was run: as §1

[3] = compound: C1=CC(=CC=C1C2=NC3=C(N2)C=C(C=C3)C(=O)N)OC4=CC=C(C=C4)Cl
How it was run: as §1

[4] = compound: C1=CC2=C(C=CC(=C2)/C=C\3/C(=O)NC(=NCC4=CC=CS4)S3)N=C1
How it was run: as §1

[5] = compound: C1=CC2=NC=CN=C2C=C1/C=C/3\C(=O)NC(=O)S3
How it was run: as §1

[6] = compound: C1=CC=C(C=C1)C2=NC(=C(N2)C3=CC=NC=C3)C4=CC(=C(C=C4)Cl)O
How it was run: as §1

[7] = compound: C1=CC=C2C(=C1)C3=NNC4=CC=CC(=C43)C2=O
How it was run: as §1

[8] = compound: C1CCN(C1)C(=O)NC2=CC=CC(=C2)NC3=NC=C(C(=N3)NCCC4=CN=CN4)Br
How it was run: as §1

[9] = compound: C1CN(CCC1(CC2=CC=C(C=C2)Cl)N)C3=NC=NC4=C3C=CN4
How it was run: as §1

IRAK-1-4 Inhibitor I = compound: C1COCCN1CCN2C3=CC=CC=C3N=C2NC(=O)C4=CC(=CC=C4)[N+](=O)[O-] [IRAK-1-4 Inhibitor I]
How it was run: as §1

ibrutinib = compound: C=CC(=O)N1CCC[C@@H](n2nc(-c3ccc(Oc4ccccc4)cc3)c3c(N)ncnc32)C1 [ibrutinib]
How it was run: as §1

[10] = compound: CC(=O)c1cnc2ccc(-c3cc(Cl)c(O)c(Cl)c3)nc2c1N[C@H]1CC[C@H](CN(C)C)CC1
How it was run: as §1

ralimetinib = compound: CC(C)(C)Cn1c(N)nc2ccc(-c3[nH]c(C(C)(C)C)nc3-c3ccc(F)cc3)nc21 [ralimetinib]
How it was run: as §1

[11] = compound: CC(C)(O)CC(=O)NCCn1ccc2ncnc(Nc3ccc(Oc4cccc(C(F)(F)F)c4)c(Cl)c3)c21
How it was run: as §1

[12] = compound: CC(C)C1=C2N=C(C=C(N2N=C1)NCC3=CC=CC=C3)NCCCCCCN
How it was run: as §1

[13] = compound: CC(C)C[C@@H](C=O)NC(=O)[C@H](CC(C)C)NC(=O)[C@H](CC(C)C)NC(=O)OCc1ccccc1
How it was run: as §1

pinometostat = compound: CC(C)N(C[C@H]1O[C@@H](n2cnc3c(N)ncnc32)[C@H](O)[C@@H]1O)[C@H]1C[C@@H](CCc2nc3cc(C(C)(C)C)ccc3[nH]2)C1 [pinometostat]
How it was run: as §1

[14] = compound: CC1=C(C2=C(C=C1)C(=O)C3=CC=CC=C3N2CCCN)C
How it was run: as §1

[15] = compound: CC1=C(C(CC(=O)N1)C2=CC=C(C=C2)C(F)(F)F)C(=O)NC3=C(C=C4C(=C3)C=NN4)F
How it was run: as §1

For UPF3B (UniProt Q9BZI7), the log2 fold change (erlotinib) was inactive: -0.108, the log2 fold change [1] was inactive: -0.149 and the log2 fold change [2] was active: -0.703. The log2 fold change [3] was inactive: 0.088, the log2 fold change [4] was inactive: -0.053 and the log2 fold change [5] was inactive: -0.072. The log2 fold change [6] was inactive: -0.019, the log2 fold change [7] was inactive: -0.016 and the log2 fold change [8] was inactive: 0.117. For the same target, the log2 fold change [9] was inactive: -0.097, the log2 fold change (IRAK-1-4 Inhibitor I) was inactive: -0.099 and the log2 fold change (ibrutinib) was inactive: 0.158. For the same target, the log2 fold change [10] was inactive: 0.265, the log2 fold change (ralimetinib) was inactive: 0.27 and the log2 fold change [11] was inactive: 0.057. For the same target, the log2 fold change [12] was inactive: -0.02, the log2 fold change [13] was inactive: 0.19 and the log2 fold change (pinometostat) was inactive: 0.394. The log2 fold change [14] was inactive: -0.183.
With VARS2, A0A0G2JL52 the log2 fold change (erlotinib) was inactive: 0.012, the log2 fold change [1] was inactive: 0.006 and the log2 fold change [2] was inactive: -0.002. The log2 fold change [3] was inactive: 0, the log2 fold change [4] was inactive: 0.046 and the log2 fold change [5] was inactive: -0.006. The log2 fold change [6] was inactive: 0.026, the log2 fold change [7] was inactive: 0.003 and the log2 fold change [8] was inactive: 0.006. For the same target, the log2 fold change [9] was inactive: -0.01, the log2 fold change (IRAK-1-4 Inhibitor I) was inactive: 0.012 and the log2 fold change (ibrutinib) was inactive: 0.014. For the same target, the log2 fold change [10] was inactive: -0.03, the log2 fold change (ralimetinib) was inactive: 0.064 and the log2 fold change [11] was inactive: -0.074. The log2 fold change [12] was inactive: -0.177, the log2 fold change [13] was inactive: 0.025 and the log2 fold change (pinometostat) was inactive: -0.014. The log2 fold change [14] was inactive: 0.082.
In the case of UCHL5 isoform 3 (UniProt Q9Y5K5), the log2 fold change (erlotinib) is reported as inactive: 0.047, the log2 fold change [1] is reported as inactive: 0.106 and the log2 fold change [2] is reported as inactive: 0.415. The log2 fold change [3] was inactive: -0.124, the log2 fold change [4] was inactive: -0.036 and the log2 fold change [5] was inactive: 0.125. For the same target, the log2 fold change [6] was inactive: -0.11, the log2 fold change [7] was inactive: 0.102 and the log2 fold change [8] was inactive: 0.207. For the same target, the log2 fold change [9] was inactive: -0.103, the log2 fold change (IRAK-1-4 Inhibitor I) was inactive: -0.012 and the log2 fold change (ibrutinib) was inactive: -0.222. For the same target, the log2 fold change [10] was inactive: -0.021, the log2 fold change (ralimetinib) was inactive: 0.006 and the log2 fold change [11] was inactive: -0.357. The log2 fold change [12] was inactive: -0.143, the log2 fold change [13] was inactive: 0.077 and the log2 fold change (pinometostat) was inactive: -0.044. For the same target, the log2 fold change [14] was inactive: 0.028.
For UNC93B1 (UniProt Q9H1C4), the log2 fold change (erlotinib) was inactive: 0.023, the log2 fold change [1] was inactive: -0.028 and the log2 fold change [2] was inactive: -0.032. The log2 fold change [3] was inactive: -0.144, the log2 fold change [4] was inactive: -0.055 and the log2 fold change [5] was inactive: 0.07. The log2 fold change [6] was inactive: 0.129, the log2 fold change [7] was inactive: -0.066 and the log2 fold change (IRAK-1-4 Inhibitor I) was inactive: -0.085. For the same target, the log2 fold change (ibrutinib) was inactive: -0.061, the log2 fold change [10] was inactive: 0.052 and the log2 fold change (ralimetinib) was inactive: -0.021. For the same target, the log2 fold change [11] was inactive: 0.013, the log2 fold change [12] was inactive: -0.135 and the log2 fold change [13] was inactive: 0.011. For the same target, the log2 fold change (pinometostat) was inactive: 0.13 and the log2 fold change [15] was inactive: 0.039.
ULBP1 (UniProt Q9BZM6) was tested, and the log2 fold change (erlotinib) was inactive: -0.017, the log2 fold change [1] was inactive: 0.011 and the log2 fold change [2] was inactive: 0.231. The log2 fold change [3] was inactive: 0.044, the log2 fold change [4] was inactive: 0.021 and the log2 fold change [6] was inactive: -0.083. The log2 fold change [7] was inactive: 0.037, the log2 fold change [8] was inactive: -0.073 and the log2 fold change [9] was inactive: 0.078. For the same target, the log2 fold change [10] was inactive: -0.038, the log2 fold change (ralimetinib) was inactive: -0.058 and the log2 fold change [11] was inactive: -0.132. The log2 fold change [12] was inactive: 0.112, the log2 fold change [13] was inactive: 0.006 and the log2 fold change [14] was inactive: 0.009.
In the case of UXT isoform 2 (UniProt Q9UBK9), the log2 fold change (erlotinib) is reported as active: 0.925, the log2 fold change [1] is reported as inactive: -0.263 and the log2 fold change [2] is reported as inactive: 0.078. The log2 fold change [3] was inactive: 0.113, the log2 fold change [4] was inactive: 0.061 and the log2 fold change [5] was inactive: -0.044. The log2 fold change [6] was inactive: -0.053, the log2 fold change [7] was inactive: 0.012 and the log2 fold change [8] was inactive: -0.036. For the same target, the log2 fold change [9] was inactive: -0.086, the log2 fold change (IRAK-1-4 Inhibitor I) was inactive: 0.103 and the log2 fold change (ibrutinib) was inactive: -0.033. The log2 fold change [10] was inactive: -0.019, the log2 fold change (ralimetinib) was inactive: -0.031 and the log2 fold change [11] was inactive: -0.005. The log2 fold change [12] was inactive: 0.316, the log2 fold change [13] was inactive: 0.082 and the log2 fold change (pinometostat) was inactive: -0.141. The log2 fold change [14] was inactive: 0.194.
In the case of UGGT1 (UniProt Q9NYU2), the log2 fold change (erlotinib) is reported as inactive: -0.027, the log2 fold change [1] is reported as inactive: 0.016 and the log2 fold change [2] is reported as inactive: 0.007. The log2 fold change [3] was inactive: 0.007, the log2 fold change [4] was inactive: 0.018 and the log2 fold change [5] was inactive: 0.014. The log2 fold change [6] was inactive: -0.012, the log2 fold change [7] was inactive: 0.019 and the log2 fold change [8] was inactive: -0.015. For the same target, the log2 fold change [9] was inactive: 0.005, the log2 fold change (IRAK-1-4 Inhibitor I) was inactive: -0.011 and the log2 fold change (ibrutinib) was inactive: -0.027. The log2 fold change [10] was inactive: 0.001, the log2 fold change (ralimetinib) was inactive: 0.001 and the log2 fold change [11] was inactive: -0.028. For the same target, the log2 fold change [12] was inactive: -0.007, the log2 fold change [13] was inactive: -0.038 and the log2 fold change (pinometostat) was inactive: 0.028. The log2 fold change [14] was inactive: 0.023.
In the case of UPRT (UniProt Q96BW1), the log2 fold change (erlotinib) is reported as inactive: 0.023, the log2 fold change [1] is reported as inactive: 0.06 and the log2 fold change [2] is reported as inactive: 0. For the same target, the log2 fold change [3] was inactive: 0.029, the log2 fold change [4] was inactive: 0.092 and the log2 fold change [5] was inactive: 0.039. The log2 fold change [6] was inactive: -0.013, the log2 fold change [7] was inactive: -0.118 and the log2 fold change (IRAK-1-4 Inhibitor I) was inactive: -0.041. For the same target, the log2 fold change (ibrutinib) was inactive: 0.03, the log2 fold change [10] was inactive: -0.154 and the log2 fold change (ralimetinib) was inactive: 0.012. The log2 fold change [11] was inactive: -0.088, the log2 fold change [12] was inactive: 0.006 and the log2 fold change [13] was inactive: -0.125. For the same target, the log2 fold change (pinometostat) was inactive: -0.009 and the log2 fold change [15] was inactive: 0.057.
UBE4B isoform 4 (UniProt O95155) was tested, and the log2 fold change (erlotinib) was inactive: -0.01, the log2 fold change [1] was inactive: 0.026 and the log2 fold change [2] was inactive: 0.041. The log2 fold change [3] was inactive: -0.016, the log2 fold change [4] was inactive: 0 and the log2 fold change [5] was inactive: 0.055. The log2 fold change [6] was inactive: 0.026, the log2 fold change [7] was inactive: -0.013 and the log2 fold change [8] was inactive: -0.008. For the same target, the log2 fold change [9] was inactive: -0.025, the log2 fold change (IRAK-1-4 Inhibitor I) was inactive: 0.008 and the log2 fold change (ibrutinib) was inactive: -0.031. The log2 fold change [10] was inactive: 0.006, the log2 fold change (ralimetinib) was inactive: 0.057 and the log2 fold change [11] was inactive: -0.117. The log2 fold change [12] was inactive: -0.041, the log2 fold change [13] was inactive: 0.047 and the log2 fold change (pinometostat) was inactive: 0. For the same target, the log2 fold change [14] was inactive: -0.005.
